From US20110195021A1 (IMMUNOGEN, published 2011)
Results are given in words; binding and its absence hold for the method and conditions named. Some results given as binding are weak or reduced against the parent protein; the word gives no strength.

Target: T1, human CD20 (human, UniProt P11836 1-297)
T1 construct: whole, on cells; also called wild type CD20; MS4A1
T1 sequence (looked up): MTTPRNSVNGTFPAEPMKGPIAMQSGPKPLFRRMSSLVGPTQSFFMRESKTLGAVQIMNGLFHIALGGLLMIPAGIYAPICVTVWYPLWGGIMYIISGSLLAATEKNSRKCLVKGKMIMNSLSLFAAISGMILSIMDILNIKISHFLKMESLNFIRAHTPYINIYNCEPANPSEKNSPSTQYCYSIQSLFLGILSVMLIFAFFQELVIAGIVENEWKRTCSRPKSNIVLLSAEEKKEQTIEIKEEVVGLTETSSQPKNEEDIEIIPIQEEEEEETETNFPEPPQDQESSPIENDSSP
Assay: flow cytometry on BJAB cells

- binding: binds
B1: chCD20-7 (antibody, V domains shown)
VH: QLQLVQSGPELKKPGETVKISCKASGYSFTNYGMNWVKQAPGKGLKWMGWINTYTGEPSYADDFKGRFAFSLETSASTAYLQISNLKNEDTATYFCARGAYYRYDLGMDYWGQGTSVTVSS
VL: DIVLTQSPASLAVSLGQRATISCRASGSVDSFGNSFMHWYQQKPGQPPKLLIYRASNLESGVPARFSGGGSRTDFTLTINPVEADDIATYFCQQSYEDPFTFGAGTKLELMR
notes: Chimeric antibody: CD20-7 variable regions cloned into pchCD20-7HCN and pchCD20-7LCZ and expressed in HEK-293T cells; also called chimeric CD20-7
